Data as given in article PMC9431697.
Results are given in words; binding and its absence hold for the method and conditions named. Binding seen in cells or lysates may run through a third protein. Some entries that bind do so weakly or less than the wild type.

Protein sequences, listed by entry. Tags and fused reporters are not part of them. Lines headed by an entry give the natural chain unless they say otherwise; changes in a name come on top. Chains listed by the source or under a name are the forms on record and can include a tag or linker.
transcriptional factor CREB, endogenous in mouse hippocampus (mouse (endogenous in hippocampal tissue)) (Q01147, form named): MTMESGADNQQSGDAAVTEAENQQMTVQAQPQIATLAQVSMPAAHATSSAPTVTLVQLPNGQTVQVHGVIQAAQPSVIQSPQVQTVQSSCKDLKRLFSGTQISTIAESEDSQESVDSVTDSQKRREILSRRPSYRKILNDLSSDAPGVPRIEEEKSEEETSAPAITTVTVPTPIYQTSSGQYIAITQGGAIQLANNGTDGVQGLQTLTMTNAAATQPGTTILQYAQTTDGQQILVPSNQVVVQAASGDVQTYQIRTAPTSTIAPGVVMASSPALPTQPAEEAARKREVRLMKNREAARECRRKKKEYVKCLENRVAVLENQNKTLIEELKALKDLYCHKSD

Key:
[1] = target: p-CREB (S133), CREB phosphorylated at the serine residue 133, endogenous in mouse hippocampus (mouse (endogenous in hippocampal tissue)) (UniProt Q01147); experiment: co-IP; mouse hippocampal tissue homogenised in RIPA lysis buffer without SDS; about 1 mg clarified lysate with protein A/G agarose beads and antibody or IgG control (4 ug) at 4°C overnight; immunoblot; WT tissue (Figure 7F, 7J), +/+ and Phf21b Δ4/Δ4 tissue (Figure 7K)
[2] = target: transcriptional factor CREB, endogenous in mouse hippocampus (mouse (endogenous in hippocampal tissue)) (UniProt Q01147); experiment: as above

- binding [1]: binds
- binding [2]: binds
B1: PHF21B (PHD finger protein 21B), endogenous in mouse hippocampus (protein, UniProt Q8C966 1-487)
chain: MELQSRSEALAVELARHQNGDLKKQLHERQPRIAALSDKQALGSTTAVPVTGPQVSSLQRLAGQGAAVLPQVRPKTLIPDSLPVTPGRDRPPKQPPTFQKATVVSIKNPSPALPTANNTVNHVPTPSSQTQALTEPTAITSPLSSAGVAYAIISTSPSNAATITPSTTVPVASDGIKVQPLLISADKKVIIIQPQVKTQPESSAEPEPPTEEPSQGAQATKEDQPPSKENPEKIAFMVALGLVTTEHLEEIQSKRQERKRRSTANPAYSGFLETERKRLASSYLHNPLFLTARANEDPCWKGEITHDEFCAACKRGASLQPCGTCSGAYHLSCLDPPLKTPPKGLWVCPKCQRKALKKDEGVPWTGMLAIVHSYVTHKTVKEEEKQKLLQRGSELQSEHQQLEERDRQLASAVKKCLELKTSLLARQRGTQSSLDRIRALLRLIQGEQMLQVAMATTSPTPLLAGPWTKPSTTTTMRTTLQHPQNHN
